Laboratory results from the supplement of paper PMC12823440, “Inhibitors supercharge kinase turnover through native proteolytic circuits” (Nature, 2025).
Counter-ions that a name gives are not always drawn. Some of the results follow. The calls rarely recur for the same compound in another form.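 In K562 cells expressing nanoluciferase-fused kinases, luminescence was recorded at 4 h intervals between 2 and 18 h, normalized as percent of control with DMSO at 100% and a positive control at 0%. A significant (2 sigma) signal drop marks a time point as decreased. The authors' rule for a hit is not shown and takes in more than the number of time points.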

Sequences of proteins named here, by UniProt entry; tags and fusion partners are left off.
UniProt Q9UQM7, whole entry: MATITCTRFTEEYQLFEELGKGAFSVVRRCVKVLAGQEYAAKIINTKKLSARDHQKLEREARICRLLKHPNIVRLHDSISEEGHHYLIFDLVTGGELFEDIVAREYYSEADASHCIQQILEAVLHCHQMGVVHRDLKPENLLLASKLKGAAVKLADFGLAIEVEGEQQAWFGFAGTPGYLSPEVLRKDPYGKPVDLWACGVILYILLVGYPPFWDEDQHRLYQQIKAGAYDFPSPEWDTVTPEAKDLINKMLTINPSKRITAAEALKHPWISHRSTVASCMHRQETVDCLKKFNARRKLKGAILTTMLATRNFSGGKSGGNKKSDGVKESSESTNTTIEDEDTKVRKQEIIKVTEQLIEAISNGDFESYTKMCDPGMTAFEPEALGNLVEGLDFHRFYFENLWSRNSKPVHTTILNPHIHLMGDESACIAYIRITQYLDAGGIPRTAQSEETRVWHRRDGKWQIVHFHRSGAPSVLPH

Molecular target: CAMK2A (UniProt Q9UQM7)
Assay: number of time points (of 5) at which kinase-Nluc abundance scored as decreased, DMSO-normalised (count); higher = more persistent destabilization
Settings: K562; 2-18 h

Row | Structure (SMILES) | number of time points
1 | CC(C)C[C@H](NC(=O)[C@H](CCCCN)NC(=O)[C@H](CO)NC(=O)[C@@H](N)CC(C)C)C(N)=O [LSKL, Inhibitor of Thrombospondin (TSP-1) (TFA)] (10 µM) | 0
2 | CN1CC[C@H](c2c(O)cc(O)c3c(=O)cc(-c4ccc(C(F)(F)F)cc4Cl)oc23)[C@H]1CO [(2S,3R)-Voruciclib (hydrochloride)] (2.5 µM) | 0
3 | C[C@H]1[C@H](OC(=O)CCC(=O)O)O[C@@H]2O[C@@]3(C)CC[C@H]4[C@H](C)CC[C@@H]1[C@@]24OO3 [Artesunate] (2.5 µM) | 0
4 | c1ccc(-c2nn3c(c2-c2ccnc4cc(OCCN5CCOCC5)ccc24)CCC3)nc1 (10 µM) | 0
5 | COc1cc(N2CCC(N(C)C)CC2)ccc1Nc1ncc(Cl)c(Nc2ccccc2P(C)(C)=O)n1 (2.5 µM) | 0
6 | Cc1ccc(-c2ncn(-c3ccc(Nc4nccc(-c5cccc(N6CCOCC6)c5)n4)cc3)n2)cn1 (10 µM) | 0
7 | CC[C@@H]1[C@H](F)C(=O)N[C@@H]1COc1nccc2cc(C(N)=O)c(OC)cc12 (10 µM) | 0
8 | O=C1NC(=O)/C(=C/c2ccc(-c3ccc(F)cc3O)o2)S1 (10 µM) | 0
9 | Cc1cc(Nc2cc(CN3CCOCC3)c3nc(C)c(Cc4ccc(Cl)cc4F)n3n2)n[nH]1 [Gandotinib] (2.5 µM) | 0
10 | CN(C)C(=O)c1ccc(S(=O)(=O)c2ccc(NC(=O)[C@@](C)(O)C(F)(F)F)c(Cl)c2)cc1 (10 µM) | 0
11 | CCc1cccc(CC)c1NC(=O)c1nn(C)c2c1CCc1cnc(Nc3ccc(C(=O)NC4CCN(C)CC4)cc3OC(F)(F)F)nc1-2 (2 µM) | 0
12 | O=C(Nc1ccc(Cl)cc1)C1CCCN(C(=O)c2cccc(-c3ccco3)c2)C1 (stereo not drawn) (2.5 µM) | 0
13 | CN(C)Cc1cccc(N=C(c2ccccc2)c2c(O)[nH]c3cc(C(=O)N(C)C)ccc23)c1 (10 µM) | 0
14 | OCCN(CCO)c1ccc(C(c2ccc(Cl)cc2)c2ccc(N(CCO)CCO)cc2)cc1 (10 µM) | 0
15 | CCOc1ccccc1C=C1C(=O)Nc2ccccc21 (10 µM) | 0
16 | COc1ncc(Nc2ncc([C@@H](C)N3CCN(S(C)(=O)=O)CC3)cc2-c2nc(C)nc(N)n2)cc1F (10 µM) | 0
17 | O=C(CO)N1CCC(c2n[nH]c(-c3ccc(Cl)cc3)c2-c2ccncn2)CC1 (10 µM) | 0
18 | Cn1ncc(Cl)c1-c1cc(C(=O)N[C@H](CN)Cc2ccc(F)c(F)c2)sc1Cl (10 µM) | 0
19 | O=c1ccc2ccc(O)c(O)c2o1 [Daphnetin] (10 µM) | 0
20 | O=C(Nc1ccc(Cl)c(Cl)c1)Nc1ccc2nnsc2c1 (10 µM) | 0
21 | O=C(O)c1cc(O)c2c(c1)[C@@H]([C@H]1c3cc(C(=O)O)cc(O)c3C(=O)c3c(O[C@@H]4O[C@H](CO)[C@@H](O)[C@H](O)[C@H]4O)cccc31)c1cccc(O[C@@H]3O[C@H](CO)[C@@H](O)[C@H](O)[C@H]3O)c1C2=O [Sennoside B] (2.5 µM) | 0
22 | O=c1nc(N2CCOCC2)oc2c(-c3cccc4c3sc3ccccc34)cccc12 (10 µM) | 0
23 | O=C(Nc1cccc(-c2nncn2C2CC2)c1)c1cc(-n2cnc(C3CC3)c2)ccn1 (10 µM) | 0
24 | CSc1ccc(CN2CCCC(Nc3ccc4[nH]ncc4c3)C2)cc1 (stereo not drawn) [Rho-Kinase-IN-1] (10 µM) | 0
25 | Oc1ccccc1C(=S)N1CCCC1 (10 µM) | 0
26 | COC(=O)N[C@@H](C)CNc1nccc(-c2cn(C(C)C)nc2-c2cc(Cl)cc(NS(C)(=O)=O)c2F)n1 [Encorafenib] (10 µM) | 0
27 | C=CS(=O)(=O)c1ccc(Nc2nc(OCC3CCCCC3)c3[nH]cnc3n2)cc1 (2.5 µM) | 0
28 | O=c1[nH]ccc2cc(OC3CCNCC3)ccc12 (10 µM) | 0

2 records picked at random from those above:
Row | Structure (SMILES) | number of time points
26 | COC(=O)N[C@@H](C)CNc1nccc(-c2cn(C(C)C)nc2-c2cc(Cl)cc(NS(C)(=O)=O)c2F)n1 [Encorafenib] (10 µM) | 0
2 | CN1CC[C@H](c2c(O)cc(O)c3c(=O)cc(-c4ccc(C(F)(F)F)cc4Cl)oc23)[C@H]1CO [(2S,3R)-Voruciclib (hydrochloride)] (2.5 µM) | 0
